# According to PubChem BioAssay AID1671190 (National Center for Advancing Translational Sciences (NCATS), 2021):
# Amino acid sequences for entries named in this document (tags omitted). A change or cut given only in a name is not applied to a line headed by its entry.
# UniProt P18054: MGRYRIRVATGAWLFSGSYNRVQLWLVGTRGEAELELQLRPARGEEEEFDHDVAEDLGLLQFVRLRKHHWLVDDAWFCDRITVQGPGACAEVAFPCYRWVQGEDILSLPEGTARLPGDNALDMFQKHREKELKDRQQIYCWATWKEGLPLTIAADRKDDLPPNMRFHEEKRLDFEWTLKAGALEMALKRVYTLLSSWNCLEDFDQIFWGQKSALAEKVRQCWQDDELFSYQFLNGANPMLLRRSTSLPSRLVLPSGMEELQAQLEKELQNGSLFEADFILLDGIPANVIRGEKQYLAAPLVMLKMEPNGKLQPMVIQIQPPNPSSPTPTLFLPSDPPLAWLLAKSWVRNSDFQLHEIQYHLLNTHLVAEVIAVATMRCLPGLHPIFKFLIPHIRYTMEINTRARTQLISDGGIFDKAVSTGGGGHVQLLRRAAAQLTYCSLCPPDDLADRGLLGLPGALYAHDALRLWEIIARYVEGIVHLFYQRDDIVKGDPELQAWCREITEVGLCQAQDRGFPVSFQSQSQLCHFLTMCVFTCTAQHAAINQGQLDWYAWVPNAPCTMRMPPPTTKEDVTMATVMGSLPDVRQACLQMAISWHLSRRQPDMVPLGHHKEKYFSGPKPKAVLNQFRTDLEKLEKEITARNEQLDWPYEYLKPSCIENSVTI
# The whole screen tested about 580,000 compounds, of which about 6,100 (1.1%) were called active. The shares of active, inactive and inconclusive entries below differ from those in the screen. The call rests on the fitted dose curve; in most records, active means well fitted inhibition curve with a large enough effect; inconclusive means small, poorly fitted or top-dose-only effect, or another doubt; inactive means no such curve, though single readings can be large or run the other way. Potencies of inconclusive entries are doubtful fits and often do not repeat.
# Target: Polyunsaturated fatty acid lipoxygenase ALOX12 (Homo sapiens) (UniProt P18054)
# Assay: Primary qHTS assay for inhibitors of human arachidonate 12S-lipoxygenase (ALOX12): Round 2
# Conditions: purified 12hLO, xylenol orange hydroperoxide absorbance; activity change, negative = inhibition: at 108 µM (top of the series) unless noted
# How it was run: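 Purified human 12hLO at 150 nM in 25 mM Hepes, 0.01% Triton X-100, pH 7.0, preincubated 15 min at room temperature with compound. Reaction started with 40 uM arachidonic acid, 30 min at room temperature. Hydroperoxide measured by Fe-xylenol orange, 573/405 nm absorbance ratio.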
# On the % scale 0 is the no-effect control and ±100 the full control effect; potency means the concentration at half of the fitted maximal effect.
SMILES,Potency,"activity change, negative = inhibition"
COc1ccccc1-c1nccc(NCc2ccccc2)n1,active: 22.4 µM,
CCOc1cc(/C=C2/NC(=O)NC2=O)cc(Cl)c1OCC,"inconclusive: 50.1 µM [inhibitor, partial curve, poor fit]",
COc1ccc(CCNC(=O)C2CCCN(c3ncnc4c3nc3n4CCCCC3)C2)c(OC)c1 (centres undefined),,inactive: 15.6%
CCOC(=O)CSc1nc2c(c(=O)[nH]c(=O)n2C)n1C,,inactive: 10.9%
COc1ccc(C)cc1NC(=O)C(C)O/N=C/c1ccc(Cl)cc1 (centres undefined),"inconclusive: 112 µM [inhibitor, single point]",
CN1CCN(c2nc(-c3ccccc3C(F)(F)F)nc3ccccc23)CC1,"inconclusive: 6.31 µM [inhibitor, full curve, poor fit]",
O=C(OCC(=O)c1cccs1)c1ccc(O)cc1,"inconclusive: 3.55 µM [inhibitor, full curve, poor fit]",
O=c1o[nH]c(-c2ccccc2)c1N=Nc1c(F)cccc1Cl,"inconclusive: 35.5 µM [inhibitor, single point]",
CN1CC(=O)N(C2CCCNCC2)Cc2c1ncnc2N1CCN(c2ncccn2)CC1 (centres undefined),"inconclusive: 2.82 µM [inhibitor, full curve, poor fit]",
CCCCN(Cc1cc2cc(OC)ccc2[nH]c1=O)S(=O)(=O)c1ccccc1,,inactive: 0.168%
COc1ccc(OC)c(NC(=O)Cc2c(C)c3ccc(OC)cc3oc2=O)c1,"inconclusive: 141 µM [inhibitor, single point]",
O=C1/C(=C/c2ccccn2)SC(=S)N1Nc1ncc(C(F)(F)F)cc1Cl,"inconclusive: 20 µM [inhibitor, partial curve]",
CC(C)c1onc(-c2c(Cl)cccc2Cl)c1COc1ccc(C=Cc2cccc(C(=O)O)c2)c(Cl)c1,"inconclusive: 27.3 µM [inhibitor, partial curve, poor fit]",
Cc1ccc(S(=O)(=O)Nc2ccc3nc(-c4cccc(Cl)c4)oc3c2)cc1,"inconclusive: 50.1 µM [inhibitor, partial curve, poor fit]",
COC(=O)C1=C(C)N(Cc2ccc(C(F)(F)F)cc2)C(=NCc2ccc(OC)cc2)NC1c1ccccc1 (centres undefined),"inconclusive: 50.1 µM [inhibitor, partial curve, poor fit]",
O=C(c1ccc(N2CCN(C(=O)c3cccc(F)c3)CC2)cc1)c1cccc(F)c1,,inactive: 386%
O=C(C(=O)N1CCC(CNS(=O)(=O)c2ccc(C(F)(F)F)cc2)CC1)c1cc2ccccc2o1,,inactive: -10%
COC(=O)c1ccc(Nc2nc(-c3ccncc3)nc3ccccc23)cc1,"inconclusive: 20 µM [inhibitor, full curve, poor fit]",
COc1ccc(OC)c(NC2c3ncccc3C(=O)N2Cc2ccco2)c1 (centres undefined),"inconclusive: 22.4 µM [inhibitor, full curve, poor fit]",
O=C(O)CCc1nn2c3ccccc3n(CCOc3ccccc3)c2nc1=O,,inactive: -10%
O=C1CCCCCN1C(=O)c1ccccc1,,inactive: -16.3%
CCCCn1c(N)c(N(C)C(=O)c2ccccc2Oc2ccccc2)c(=O)[nH]c1=O,"inconclusive: 89.1 µM [inhibitor, single point]",

SMILES,Potency,"activity change, negative = inhibition"
COc1ccc(C2=Nc3ccccc3NC(=O)C2N(Cc2ccc(F)cc2)C(=O)c2ccco2)cc1 (centres undefined),"inconclusive: 35.5 µM [inhibitor, partial curve, poor fit]",
O=C(CCS(=O)(=O)c1ccccc1)N(CCCN1CCOCC1)c1nc2c(F)cccc2s1,"inconclusive: 158 µM [inhibitor, partial curve, poor fit]",
O=C(N1CCN(c2nc(-c3ccccc3)c3ccccc3n2)CC1)C(F)(F)F,"inconclusive: 17.8 µM [inhibitor, partial curve, poor fit]",
CCc1ccc(NC(=S)N(Cc2cccc(Br)c2)CC2CCC(C(=O)O)CC2)cc1 (centres undefined),"inconclusive: 35.5 µM [inhibitor, partial curve]",
COc1cc(C)cc2oc(=O)c(CC(=O)NCc3ccco3)c(C)c12,,inactive: -1.58%
O=S1(=O)c2ccc(Br)cc2N2CCC[C@H]2CN1Cc1ccccc1,"inconclusive: 112 µM [inhibitor, single point]",
COc1cc(/C=C2\NC(=S)N(C)C2=O)ccc1O,"inconclusive: 50.1 µM [inhibitor, partial curve, poor fit]",
Cc1ccc(NC(=O)NN2CCN(C)CC2)cc1C,,inactive: 6.25%
OCCN(Cc1ccccc1)Cc1ccc(Cl)cc1,"inconclusive: 0.794 µM [inhibitor, full curve, poor fit]",
COc1cc(-c2[nH]nc3c2C(c2ccco2)C(C#N)=C(N)O3)cc(OC)c1OC (centres undefined),"inconclusive: 50.1 µM [inhibitor, partial curve, poor fit]",
O=C1N/C(=C\c2ccccc2)c2ccccc21,,inactive: 10.2%
Cc1ccc(NC(=O)c2ccc(NCCCN3CCOCC3)c([N+](=O)[O-])c2)cc1Cl,,inactive: -29.9%
COc1ccccc1C(=O)OC1=CN(C(C)C)S(=O)(=O)c2ccccc21,,inactive: 44.6%
COc1cc(C)ccc1OCC(=O)Nc1ccc2c(c1)OCO2,,inactive: 0.664%
COc1ccc(Cl)cc1NS(=O)(=O)c1cccc(C(=O)NCC2CCCO2)c1 (centres undefined),"inconclusive: 44.7 µM [inhibitor, partial curve, poor fit]",
Nc1ncnc2c1ncn2[C@@H]1O[C@H](COP(=O)(O)OP(=O)(O)CP(=O)(O)O)[C@@H](O)[C@H]1O,active: 15.8 µM,
Cc1ccccc1C(=O)N1CCN(c2oc(-c3ccc(F)cc3)nc2C#N)CC1,"inconclusive: 35.5 µM [inhibitor, partial curve, poor fit]",
CCOC(=O)C1C(=O)C=C(c2ccc(C)cc2)CC1c1cccs1 (centres undefined),,inactive: -18.3%
Cc1ccc(Nc2nc3nonc3[nH]c2=O)cc1,"inconclusive: 44.7 µM [inhibitor, partial curve, poor fit]",
N#Cc1ccc(OCC(=O)Nc2cccc(S(=O)(=O)NC3=NCCCCC3)c2)cc1,,inactive: 1.71%
COc1ccc(-c2cnn3c(N)c(S(=O)(=O)c4ccccc4)cnc23)cc1,,inactive: 3.45%
COc1ccc(Cn2c3c(c(=O)[nH]c2=O)CN(Cc2ccccc2)CN3)cc1,"inconclusive: 25.1 µM [inhibitor, single point]",

# 3 structures already listed, ordered by count of non-hydrogen atoms, largest number first.
SMILES,Potency,"activity change, negative = inhibition"
Cc1ccc(NC(=O)c2ccc(NCCCN3CCOCC3)c([N+](=O)[O-])c2)cc1Cl,,inactive: -29.9%
COc1cc(-c2[nH]nc3c2C(c2ccco2)C(C#N)=C(N)O3)cc(OC)c1OC (centres undefined),"inconclusive: 50.1 µM [inhibitor, partial curve, poor fit]",
COc1cc(/C=C2\NC(=S)N(C)C2=O)ccc1O,"inconclusive: 50.1 µM [inhibitor, partial curve, poor fit]",
